In paper PMC7840974 one finds binding data, which are given here for one substance.

The chains behind the UniProt entries cited, without tags or fusion partners.
UniProt P25490: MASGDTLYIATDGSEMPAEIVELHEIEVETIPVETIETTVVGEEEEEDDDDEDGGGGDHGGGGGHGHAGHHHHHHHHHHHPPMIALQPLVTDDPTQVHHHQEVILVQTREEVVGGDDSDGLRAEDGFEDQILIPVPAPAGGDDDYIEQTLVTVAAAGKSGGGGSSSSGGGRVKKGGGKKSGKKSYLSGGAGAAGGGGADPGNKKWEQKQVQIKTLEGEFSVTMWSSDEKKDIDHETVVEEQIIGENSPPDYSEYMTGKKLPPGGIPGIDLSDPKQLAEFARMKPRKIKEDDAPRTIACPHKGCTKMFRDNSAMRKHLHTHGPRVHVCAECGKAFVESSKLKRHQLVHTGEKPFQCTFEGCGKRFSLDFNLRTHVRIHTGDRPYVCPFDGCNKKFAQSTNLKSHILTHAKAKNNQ

In this assay the target is T1, HELLS (human (endogenous in TLBR-2 and MAC2A)) (UniProt Q9NRZ9).
T1 sequence: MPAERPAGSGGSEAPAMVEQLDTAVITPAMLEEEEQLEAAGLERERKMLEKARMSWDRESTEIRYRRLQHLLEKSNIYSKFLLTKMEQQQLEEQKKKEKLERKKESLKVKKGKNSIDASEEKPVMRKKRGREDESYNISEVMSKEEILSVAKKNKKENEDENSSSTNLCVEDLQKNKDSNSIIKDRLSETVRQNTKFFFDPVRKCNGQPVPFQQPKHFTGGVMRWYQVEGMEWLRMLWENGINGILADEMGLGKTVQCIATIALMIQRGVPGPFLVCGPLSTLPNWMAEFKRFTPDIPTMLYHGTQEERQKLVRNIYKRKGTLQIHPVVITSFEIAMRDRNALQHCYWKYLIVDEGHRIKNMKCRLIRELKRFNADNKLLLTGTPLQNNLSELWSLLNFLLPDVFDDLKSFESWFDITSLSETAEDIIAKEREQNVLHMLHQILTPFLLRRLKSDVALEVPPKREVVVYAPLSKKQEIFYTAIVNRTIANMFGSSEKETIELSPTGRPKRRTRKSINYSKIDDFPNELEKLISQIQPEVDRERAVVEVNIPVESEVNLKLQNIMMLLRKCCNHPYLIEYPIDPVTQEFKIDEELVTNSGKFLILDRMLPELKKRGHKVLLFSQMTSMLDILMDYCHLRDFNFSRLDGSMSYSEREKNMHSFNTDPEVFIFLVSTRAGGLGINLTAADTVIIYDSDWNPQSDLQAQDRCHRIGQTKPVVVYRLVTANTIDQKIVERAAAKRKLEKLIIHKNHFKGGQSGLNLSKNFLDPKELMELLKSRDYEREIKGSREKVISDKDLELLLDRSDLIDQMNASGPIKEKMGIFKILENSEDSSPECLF
In words: co-IP; nuclear extracts (4 mg) of TLBR-2 and MAC2A cells crosslinked with 1% formaldehyde; immunoprecipitation with HELLS antibody on Protein A-Sepharose, overnight 4 °C; washes in TBS (50 mM Tris-HCl pH 7.4, 150 mM NaCl); detection by western blot. In general terms: Immunoblotting shows a protein as a band on a membrane.

No constants are given. Whether binding was seen depends on the method and setting. Binding seen in cells or lysates may run through a third protein. Some results given as binding are weak or reduced against the parent protein; the word gives no strength.

As for “Yin Yang 1 (YY1) (from UniProt P25490 1-414)”, the binding result was “binds”.
